Measurements reported in PubChem BioAssay AID1224828 (NIAID, 2016).
Purpose: 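Knock-downs that increase or decrease LPS-induced p65 nuclear translocation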 (primary screen). Cells: mouse RAW264.7 G9 macrophage reporter cells (GFP-p65, Tnf promoter-mCherry). Reagents: siRNA pool against mouse genes, 100 nM. Duration: 2 days siRNA transfection, then 40 min LPS before fixation. Challenge: LPS (Salmonella minnesota R595) at 10 ng/ml. Detection: 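Imaged p65 nuclear translocation ratio, normalised to the plate median, converted to robust z-scores and averaged across two replicates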. Reading the numbers: p65 translocation robust z-score: higher = more nuclear NF-kappaB p65 after LPS than the plate median; nuclear/cytoplasmic p65 ratio: higher = more nuclear NF-kappaB p65. Active means: 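Called active when z exceeds 3.3 or falls under -1.56 (median of Tlr4 controls), giving activity score of at least 50; no calls for control wells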. Meaning of the calls: active = hit (p65 shift raised or lowered); inactive = no clear change.
The deposit covers about 17,000 reagents; below is an unselected part. 762 of all reagents (4.5%) were called active. 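Active calls include both raised and lowered p65 entry, mostly lowered; wells with fewer than 50 cells lack a z-score.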 Raw values vary from plate to plate and are shown uncorrected. Entries without a mark were called inactive. No sequences are given here.

Art2b (ADP-ribosyltransferase 2b) scored p65 translocation robust z-score 0.6; nuclear/cytoplasmic p65 ratio, rep 1 = 1.6; nuclear/cytoplasmic p65 ratio, rep 2 = 1.69; low cell count flag enough cells to score. With knock-down of Ttyh2 (tweety family member 2), the screen gave p65 translocation robust z-score 0.1; nuclear/cytoplasmic p65 ratio, rep 1 = 1.4; nuclear/cytoplasmic p65 ratio, rep 2 = 1.14; low cell count flag enough cells to score. After knock-down of Morf4l1 (mortality factor 4 like 1), the record shows p65 translocation robust z-score -0.79; nuclear/cytoplasmic p65 ratio, rep 1 = 1.71; nuclear/cytoplasmic p65 ratio, rep 2 = 1.42; low cell count flag enough cells to score. Against Ppm1a (protein phosphatase 1A, magnesium dependent, alpha isoform) the deposit lists p65 translocation robust z-score 0.47; nuclear/cytoplasmic p65 ratio, rep 1 = 1.56; nuclear/cytoplasmic p65 ratio, rep 2 = 1.47; low cell count flag enough cells to score. Against Gask1b (golgi associated kinase 1B), the values are p65 translocation robust z-score -0.81; nuclear/cytoplasmic p65 ratio, rep 1 = 1.36; nuclear/cytoplasmic p65 ratio, rep 2 = 1.4; low cell count flag enough cells to score. Knock-down of H2-Ob (histocompatibility 2, O region beta locus) came out at: p65 translocation robust z-score 0.59; nuclear/cytoplasmic p65 ratio, rep 1 = 1.56; nuclear/cytoplasmic p65 ratio, rep 2 = 1.41; low cell count flag enough cells to score.

With knock-down of Hacd2 (3-hydroxyacyl-CoA dehydratase 2), the screen gave p65 translocation robust z-score 0.04; nuclear/cytoplasmic p65 ratio, rep 1 = 1.48; nuclear/cytoplasmic p65 ratio, rep 2 = 1.43; low cell count flag enough cells to score. Or1e21 (olfactory receptor family 1 subfamily E member 21) scored nuclear/cytoplasmic p65 ratio, rep 1 = 1.18; nuclear/cytoplasmic p65 ratio, rep 2 = 1.17; low cell count flag fewer than 50 cells per well; well left out of scoring. Against Hba-a1 (hemoglobin alpha, adult chain 1), the entry reads p65 translocation robust z-score -0.56; nuclear/cytoplasmic p65 ratio, rep 1 = 1.36; nuclear/cytoplasmic p65 ratio, rep 2 = 1.31; low cell count flag enough cells to score. Pcsk2 (proprotein convertase subtilisin/kexin type 2) scored p65 translocation robust z-score -1.41; nuclear/cytoplasmic p65 ratio, rep 1 = 1.25; nuclear/cytoplasmic p65 ratio, rep 2 = 1.11; low cell count flag enough cells to score. For Arfip2 (ARF interacting protein 2) the deposit lists p65 translocation robust z-score -0.47; nuclear/cytoplasmic p65 ratio, rep 1 = 1.51; nuclear/cytoplasmic p65 ratio, rep 2 = 1.59; low cell count flag enough cells to score. With knock-down of Rd3 (retinal degeneration 3), the screen gave nuclear/cytoplasmic p65 ratio, rep 1 = 1.03; nuclear/cytoplasmic p65 ratio, rep 2 = 0.995; low cell count flag fewer than 50 cells per well; well left out of scoring.

Records listed so far whose target name starts with A or a (2):
Art2b (ADP-ribosyltransferase 2b) — p65 translocation robust z-score = 0.6; nuclear/cytoplasmic p65 ratio, rep 1 = 1.6; nuclear/cytoplasmic p65 ratio, rep 2 = 1.69; low cell count flag = enough cells to score
Arfip2 (ARF interacting protein 2) — p65 translocation robust z-score = -0.47; nuclear/cytoplasmic p65 ratio, rep 1 = 1.51; nuclear/cytoplasmic p65 ratio, rep 2 = 1.59; low cell count flag = enough cells to score

The list goes on.
Donson (downstream neighbor of SON) showed nuclear/cytoplasmic p65 ratio, rep 1 = 1.06; nuclear/cytoplasmic p65 ratio, rep 2 = 0; low cell count flag fewer than 50 cells per well; well left out of scoring. Gbp6 (guanylate binding protein 6) scored p65 translocation robust z-score 0.41; nuclear/cytoplasmic p65 ratio, rep 1 = 1.6; nuclear/cytoplasmic p65 ratio, rep 2 = 1.82; low cell count flag enough cells to score. Knock-down of Rbx1 (ring-box 1) resulted in: p65 translocation robust z-score 0.96; nuclear/cytoplasmic p65 ratio, rep 1 = 1.61; nuclear/cytoplasmic p65 ratio, rep 2 = 1.69; low cell count flag enough cells to score. For Pfkfb4 (6-phosphofructo-2-kinase/fructose-2,6-biphosphatase 4), the values are p65 translocation robust z-score 1.85; nuclear/cytoplasmic p65 ratio, rep 1 = 1.9; nuclear/cytoplasmic p65 ratio, rep 2 = 1.69; low cell count flag enough cells to score. Knock-down of Cavin2 (caveolae associated 2) resulted in: p65 translocation robust z-score 0.88; nuclear/cytoplasmic p65 ratio, rep 1 = 1.6; nuclear/cytoplasmic p65 ratio, rep 2 = 1.75; low cell count flag enough cells to score. Knock-down of Srgn (serglycin) resulted in: p65 translocation robust z-score -0.8; nuclear/cytoplasmic p65 ratio, rep 1 = 1.38; nuclear/cytoplasmic p65 ratio, rep 2 = 1.31; low cell count flag enough cells to score.

For Sim2 (single-minded family bHLH transcription factor 2) the deposit lists p65 translocation robust z-score -0.6; nuclear/cytoplasmic p65 ratio, rep 1 = 1.35; nuclear/cytoplasmic p65 ratio, rep 2 = 1.59; low cell count flag enough cells to score. Silencing of Cbr4 (carbonyl reductase 4) came out at: p65 translocation robust z-score -0.67; nuclear/cytoplasmic p65 ratio, rep 1 = 1.42; nuclear/cytoplasmic p65 ratio, rep 2 = 1.8; low cell count flag enough cells to score. Knock-down of Diaph3 (diaphanous related formin 3) came out at: p65 translocation robust z-score -0.04; nuclear/cytoplasmic p65 ratio, rep 1 = 1.49; nuclear/cytoplasmic p65 ratio, rep 2 = 1.36; low cell count flag enough cells to score. After knock-down of Htr1b (5-hydroxytryptamine (serotonin) receptor 1B), the screen gave p65 translocation robust z-score -0.64; nuclear/cytoplasmic p65 ratio, rep 1 = 1.44; nuclear/cytoplasmic p65 ratio, rep 2 = 1.47; low cell count flag enough cells to score. Mog (myelin oligodendrocyte glycoprotein) gave p65 translocation robust z-score 0.06; nuclear/cytoplasmic p65 ratio, rep 1 = 1.98; nuclear/cytoplasmic p65 ratio, rep 2 = 1.44; low cell count flag enough cells to score. Silencing of Naga (N-acetyl galactosaminidase, alpha) came out at: p65 translocation robust z-score -0.7; nuclear/cytoplasmic p65 ratio, rep 1 = 1.36; nuclear/cytoplasmic p65 ratio, rep 2 = 1.24; low cell count flag enough cells to score.

Mcm3ap showed p65 translocation robust z-score -1.66 (active); nuclear/cytoplasmic p65 ratio, rep 1 = 1.09; nuclear/cytoplasmic p65 ratio, rep 2 = 1.14; low cell count flag enough cells to score. Depletion of Or8k53 (olfactory receptor family 8 subfamily K member 53) resulted in: p65 translocation robust z-score -0.23; nuclear/cytoplasmic p65 ratio, rep 1 = 1.69; nuclear/cytoplasmic p65 ratio, rep 2 = 1.35; low cell count flag enough cells to score. Against Spef1 (sperm flagellar 1), the values are p65 translocation robust z-score 0.74; nuclear/cytoplasmic p65 ratio, rep 1 = 1.51; nuclear/cytoplasmic p65 ratio, rep 2 = 1.94; low cell count flag enough cells to score.
